PubChem BioAssay AID1159578 – Peter MacCallum Cancer Centre – 2015

Assay: 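siRNA pools altering how lymphatic endothelial cells close a scratch wound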 (primary screen)
Cell system: human lymphatic endothelial cells
Reagent: siRNA pool against human genes, 40 nM
Time to read-out: 48 h after transfection
Detection: 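Cells stained with dye and imaged after a scratch; covered wound area and nuclei counted, duplicates averaged, migration set against mock wells and turned into a robust z-score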
Reading the numbers: migration robust z-score: higher = faster migration into the scratch; nuclei per well: higher = more cells in the well
Hit rule: 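Pools averaging fewer than 3300 nuclei are never called; remaining pools count as changed when migration robust z lies outside -2 to 2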
Calls: active = migration changed; inactive = no migration change, or too few cells
This is an unselected part of about 18,000 deposited reagents. About 1,030 of all reagents (5.7%) were called active. 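Inactive calls also include pools with fewer than 3300 nuclei, whose migration was not assessed.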 Raw values vary from plate to plate and are shown uncorrected. Further read-outs or replicates are left out here. Reagent sequences are not shown.

Target gene	migration robust z-score	nuclei per well, duplicate mean	Call
DEPDC1B	0.5	5846	inactive
GATD1	0.69	4648	inactive
PUSL1	-0.73	5706	inactive
COG4	0.64	5231	inactive
ZSWIM1	-0.7	3819	inactive
TTLL13	0.69	6072	inactive
BHLHE22	-0.11	7236	inactive
SRY	0.28	6717	inactive
CCDC90B	-0.3	4083	inactive
RPA1	-1.27	3950	inactive
MYL6B	0.4	6803	inactive
CYP4F11	-2.41	5208	active
KIF13B	0.24	5862	inactive
POLR1D	-0.52	4858	inactive
SGSM3	-0.22	6548	inactive
VSX2	-0.54	6712	inactive
KRTAP19-3	-0.65	5156	inactive
SLC22A5	-0.29	4876	inactive
TAS2R40	-0.39	6029	inactive
TTC27	-1.15	4192	inactive
IFT70A	-0.94	4086	inactive
DHX30	-0.16	4821	inactive
ZNF410	-0.82	5245	inactive
